PMC2820462, “Inhibition of receptor tyrosine kinase signalling by small molecule agonist of T-cell protein tyrosine phosphatase” (BMC Cancer, 2010)
These are yes or no findings as the source states them, for the method shown. Some entries that bind do so weakly or less than the wild type.

How the values were obtained:
[1] = target: T1, biotinylated integrin α1 cytoplasmic tail peptide (biotin-…); test: ELISA; biotin-α1 cytoplasmic tail (2.5 μM) held on streptavidin plate; purified TC45 added alone or with 11 μM soluble α1-cyt or α2-cyt peptide, room temperature 1 h; bound TC45 detected with anti-TCPTP antibody CF4 and HRP; both purified
T1 sequence (peptide, biotin on the N-terminus): WKIGFFKRPLKKKMEK

[2] = target: T2, T-cell protein tyrosine phosphatase, 45 kDa form (TC45) (UniProt P17706); test: as above
T2 sequence: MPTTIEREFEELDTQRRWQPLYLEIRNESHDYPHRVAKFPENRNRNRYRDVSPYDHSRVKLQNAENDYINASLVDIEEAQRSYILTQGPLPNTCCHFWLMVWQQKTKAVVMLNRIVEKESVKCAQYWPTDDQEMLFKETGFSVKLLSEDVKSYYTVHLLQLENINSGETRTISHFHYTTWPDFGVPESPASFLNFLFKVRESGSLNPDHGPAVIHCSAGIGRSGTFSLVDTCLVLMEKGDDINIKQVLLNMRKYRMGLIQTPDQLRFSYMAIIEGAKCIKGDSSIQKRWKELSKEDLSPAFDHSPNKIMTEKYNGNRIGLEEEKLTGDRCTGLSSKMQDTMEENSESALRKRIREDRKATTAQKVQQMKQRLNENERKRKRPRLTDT

B1: T-cell protein tyrosine phosphatase, 45 kDa form (TC45) (enzyme, UniProt P17706-2 1-387)
chain: T2 sequence
binding [1]: binds

RPLKKKMEK [α1-cyt peptide (α1 cytoplasmic specific sequence lacking the conserved domain, RPLKKKMEK)]
binding [2]: binds
